# In PubChem BioAssay AID493014 (National Center for Advancing Translational Sciences (NCATS), 2011):
# Out of some 340,000 compounds screened, about 170 (0.05%) were called active. The shares of active, inactive and inconclusive entries below differ from those in the screen. The call rests on the fitted dose curve; in most records, active means well fitted inhibition curve with a large enough effect in the signal ratio, with a control signal flat (not every such curve was filed as active); inconclusive means small, poorly fitted or top-dose-only effect, or effect the other way, or a change in a side signal; inactive means flat fitted curve, though single readings scatter; the % refers to the signal ratio. Potencies of inconclusive entries are doubtful fits and often do not repeat.
# Assay: qHTS Assay to Find Inhibitors of Chronic Active B-Cell Receptor Signaling;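 on activity change, negative = inhibition: plate controls were basal doxycycline-induced cells for no effect and cells given 10 µM MG132 for full effect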
# Conditions: ABC-DLBCL IkBa-CBG/CBR reporter, luminescence ratio (green luciferase fused to IkBa over red control in TMD8 lymphoma cells), 4 h; activity change, negative = inhibition: at 46.1 µM (top of the series) unless noted
# Method in brief: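 TMD8 human ABC-DLBCL cells with doxycycline-inducible IκBα–green luciferase fusion and unfused red luciferase, in 0.5% FBS medium; compounds up to 46 uM, 4 h at 37C. Green/red luminescence ratio, filter-overlap corrected, fitted to concentration-response curves.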
# Potency means the concentration at half of the fitted maximal effect.
Structure (SMILES),"activity change, negative = inhibition",Potency
CCCCNc1c(-c2ccc(OC)c(SC(C)CC)c2)nc2cc(C)ccn12 (configuration not stated),inconclusive: -3.45%,
COc1ccc(N(CC(=O)Nc2cccc(C)c2)S(=O)(=O)c2c(C)n[nH]c2C)cc1,inconclusive: 7.47%,
COc1ccc(-n2ncc3c2CC(C)(C)CC3NC(=O)c2cnc(C)cn2)cc1 (configuration not stated),inactive,
COc1cccc(OCc2cc(/C=N/Nc3ccc(C(=O)O)cc3)ccc2OC)c1,inconclusive: 261%,
CNC(=O)/C(C#N)=C/c1c(F)cccc1Cl,inconclusive: -19.3%,
O=C1CC(N2CCCCCC2)C(=O)N1c1ccc2c(c1)OCO2 (configuration not stated),inactive,
COc1ccc(S(=O)Cc2ccc(C(=O)NCc3cccc(OC)c3)o2)cc1 (configuration not stated),inconclusive: -2.83%,
COc1ccccc1C1CC(c2ccccc2)=NN1C(=O)c1ccccc1 (configuration not stated),inconclusive: 5.67%,
Cc1ccc2nc(NC(=O)COC(=O)c3ccc(Br)o3)sc2c1,,"inconclusive: 25.1 µM [cytotoxic, single point]"
CCOc1ccccc1C(=O)Nc1nnc(CC)s1,,"inconclusive: 13 µM [falling, single point]"
CCOC(=O)c1cc2n(c1/N=C/N(C)C)-c1ccccc1C2=O,inconclusive: 9.22%,
CCOc1ccc2c(c1)c(C(C)=O)c(C)n2-c1ccccc1,inconclusive: -11.3%,
O=S1(=O)CCOC[C@H](c2ccccc2)N1Cc1cccc(F)c1,inactive,
CCc1ccc2c(c1)cc(C)c1nnc(SCC(=O)Nc3cc(OC)c(OC)cc3C(=O)O)n12,inconclusive: 1.17%,
Cc1ccc2c(cnn2C(=O)CCC(=O)NC2CCCCC2)c1,inactive,
CN1CCN(c2nc(-c3ccc(Br)cc3)nnc2-c2ccccc2)CC1,,"inconclusive: 5.62 µM [rising, single point]"
C[C@H](NC(=O)[C@H](Cc1ccccc1)n1c(=O)[nH]c2ccccc2c1=O)C(=O)N1CCC(C(=O)O)CC1,inactive,
CCc1n[nH]c(=S)n1/N=C/c1c[nH]c2ccc(Br)cc12,,"inconclusive: 12.6 µM [falling, partial curve, poor fit]"
O=C(c1ccc(Oc2ccc(C(F)(F)F)cn2)cc1)N1CCN(c2ccccc2)CC1,inconclusive: 18%,
COc1ccc(N2C(=S)NC3c4cc(Cl)ccc4OC2(C)C3C(=O)N(C)C)cc1 (configuration not stated),inconclusive: -11.1%,
O=C(OCc1nnc(-c2ccc([N+](=O)[O-])cc2)o1)c1ccc(F)c(S(=O)(=O)N2CCOCC2)c1,inactive,

# Ordered by number of heavy atoms (high to low): three of the compounds above
Structure (SMILES),"activity change, negative = inhibition",Potency
O=C(OCc1nnc(-c2ccc([N+](=O)[O-])cc2)o1)c1ccc(F)c(S(=O)(=O)N2CCOCC2)c1,inactive,
COc1ccc(N(CC(=O)Nc2cccc(C)c2)S(=O)(=O)c2c(C)n[nH]c2C)cc1,inconclusive: 7.47%,
COc1ccccc1C1CC(c2ccccc2)=NN1C(=O)c1ccccc1 (configuration not stated),inconclusive: 5.67%,

# The results go on:

Structure (SMILES),"activity change, negative = inhibition",Potency
OC1CCN(c2c3c(nc4cc(-c5cccc(F)c5)nn24)CCCC3)CC1,,"inconclusive: 23.1 µM [falling, single point]"
CCc1nnc(SCC(=O)NC2CCCCC2)nc1CC,inconclusive: -3.23%,
Fc1ccc2nc(N3CCCCC3)sc2c1,inconclusive: 4.45%,
O=C(CCCSc1nc2ccccc2[nH]1)Nc1nnc(-c2ccccc2)o1,,"inconclusive: 8.91 µM [rising, partial curve, poor fit]"
CC1CCCN(C(=O)COC(=O)COc2ccc(C#N)cc2)C1 (configuration not stated),inconclusive: 0.0217%,
COC(=O)CCCCCc1ccc(C(C)=O)s1,inconclusive: 12.1%,
Cc1ccccc1-n1nnnc1-c1ccccc1,inconclusive: 6.58%,
O=C(COC(=O)c1ccccc1Cc1ccccc1)NC1CCS(=O)(=O)C1 (configuration not stated),inactive,
COc1ccc(-c2nn(-c3ccccc3)cc2/C=N/Nc2ccccn2)cc1OC,inconclusive: -18.1%,
Nc1nc(-c2ccccc2)c(N=Nc2ccccc2Cl)s1,inconclusive: 25.1%,
O=C(N/N=C/c1ccc(N2CCOCC2)s1)c1ccccc1Cl,,"inconclusive: 17.8 µM [falling, partial curve]"
C#Cc1ccc([C@H]2C=C(C(=O)Nc3ccccc3)O[C@@H](OCc3ccc(CO)cc3)C2)cc1,inconclusive: -15.4%,
O=C(C1CCCCC1)N1CCCc2ccccc21,inactive,
CCN(CC)c1ccc(/C=C(/C#N)C(=O)NCc2ccccc2)o1,,"inconclusive: 18.4 µM [falling, partial curve, poor fit]"
O=C(Nc1ccc([N+](=O)[O-])cn1)c1ccc(Br)o1,inconclusive: -1.78%,
C=C(C)CSc1nc(N)c2c3c(sc2n1)CCC3,inconclusive: -6.27%,
CC(C)(C)[C@@H]1CCC(=O)N(CC[C@H](N=[N+]=[N-])c2ccccc2)CC1,,"inconclusive: 0.282 µM [rising, full curve, poor fit]"
Nc1nc(Cl)c(C=O)c(N2CCCCC2)n1,inconclusive: 15.6%,
O=C(O)CCC(=O)Nc1ccc(N=Nc2ccccc2)cc1,,"inconclusive: 31.6 µM [falling, single point]"
C/C(=N\NC(=O)c1cccs1)C(C)(C)C,,"inconclusive: 29.1 µM [cytotoxic, single point]"
CCOc1ccccc1N1CCN(S(=O)(=O)c2cccc3nsnc23)CC1,inconclusive: -3.99%,

Structure (SMILES),"activity change, negative = inhibition",Potency
CCn1c2ccccc2c2cc(NC(=O)c3cccc(OC)c3OC)ccc21,inconclusive: 2.04%,
Cc1ccc(NC(=O)CN2C=NS(=O)(=O)c3ccccc32)cc1,,"inconclusive: 6.31 µM [falling, single point]"
C[C@@H]1CN([C@@H](C)CO)C(=O)c2cccc(NC(=O)Nc3ccc(F)cc3)c2O[C@@H]1CN(C)Cc1ccc(Oc2ccccc2)cc1,inconclusive: -0.102%,
C#Cc1ccc([C@@H]2C=C(C(=O)OCC=C)O[C@H](OCc3ccc(CO)cc3)C2)cc1,inconclusive: -14.9%,
Cc1ccc(NC(=O)c2ccc(=O)n(CC(=O)Nc3ccccc3)n2)cc1,inconclusive: 5.49%,
Cc1csc(SCC(=O)NCc2ccc3c(c2)OCO3)n1,inconclusive: -2.57%,
O=C1CSC(c2cn(-c3ccccc3)nc2-c2ccccc2)N1Cc1ccco1 (configuration not stated),inconclusive: -13.1%,
Cc1ccc(S(=O)(=O)N2CCN(C(C)C(=O)NCC(C)c3ccccc3)CC2)cc1 (configuration not stated),inconclusive: 2.81%,
Nc1nc(CCl)nc(Nc2cccc3ccccc23)n1,,"inconclusive: 31.6 µM [falling, single point]"
Cn1nc(C(=O)NCC2COc3ccccc3O2)c2ccccc2c1=O (configuration not stated),inactive,
Cc1c(Cl)cccc1NC(=S)N(CCN(C)C)C(C)c1ccccn1 (configuration not stated),inactive,
CC(OC(=O)c1ccc(O)cc1)C(=O)Nc1cc(C(F)(F)F)ccc1Cl (configuration not stated),inconclusive: 14.1%,
CCCc1nnc2n1N=C(c1ccc(C)cc1)CS2,inconclusive: -17.3%,
COc1cccc(N2CC(NC(=O)C(=O)c3c[nH]c4ccccc34)CC2=O)c1 (configuration not stated),inactive,
Cc1ccc(N=CC=C2OC(C)(C)C(C)(C)O2)cc1,inconclusive: -0.868%,
CCCc1cc(=O)n2[nH]c(NCc3c(F)cccc3Cl)nc2n1,,"inconclusive: 29.1 µM [falling, single point]"
N#C/C(=N\Nc1ccc([N+](=O)[O-])cc1)C(=N)N1CCOCC1,inconclusive: 4.62%,
O=C(NNc1c2ccccc2nc2ccccc12)c1ccccc1O,inconclusive: 6.16%,
Cc1cccc(NC(=O)C2CC(=O)N(Cc3ccccc3)C2)n1 (configuration not stated),inactive,
CCCC(=O)NC(c1cccs1)c1cc(Cl)c2cccnc2c1O (configuration not stated),inactive,
O=C(Cc1ccccc1)Nc1ccc(-c2nnc(-c3ccco3)o2)cc1,,"inconclusive: 20.6 µM [rising, single point]"

Structure (SMILES),"activity change, negative = inhibition",Potency
COc1ccc(CNC(=O)C(CCSC)NS(=O)(=O)c2ccccc2F)cc1 (configuration not stated),inconclusive: 0.735%,
N#Cc1nc(-c2cccc3ccccc23)oc1NCCN1CCCCC1,inconclusive: 4.98%,
COCCn1cnnc1SCC(=O)Nc1cc(OC)c([N+](=O)[O-])cc1C,inactive,
COc1cccc(NC(=O)CN(C)C(=O)c2ccc(S(=O)(=O)Nc3ccccc3F)cc2)c1,inconclusive: 9.95%,
CCN(CC)S(=O)(=O)c1ccc(-n2c(=O)c(C(C)C)c(C)n2C)cc1,inactive,
O=C(c1ccc(COc2ccc(Br)cc2)o1)N1N=C(C(F)F)CC1(O)C(F)F (configuration not stated),,"inconclusive: 25.9 µM [falling, partial curve, poor fit]"
CC1(C)NC(=O)N(CNc2cc(Cl)ccc2Cl)C1=O,inconclusive: 8.05%,
CCN=C1S/C(=C\c2cn(CC(=O)NCc3ccco3)c3ccccc23)C(=O)N1CC,inconclusive: 10.7%,
O=C(/C=C/c1ccc(OCCCF)cc1)N1CCOCC1,inactive,
Oc1ccc(-c2[nH]ncc2-c2nc3ccccc3s2)c(O)c1,,"inconclusive: 25.1 µM [falling, single point]"
CNC(=S)N(Cc1ccc(OC)cc1)C1CC(=O)N(c2ccc(Cl)cc2)C1=O (configuration not stated),inconclusive: -3.54%,
Fc1cccc(CSc2nnc3ccc(-c4ccncc4)nn23)c1,inconclusive: -28.5%,
O=C(O)/C=C/c1ccc(S(=O)(=O)Nc2ccc3[nH]c(=O)[nH]c3c2)cc1,inconclusive: -0.985%,
O=C(/C=C\Nc1ccccn1)c1ccc(Cl)cc1,,"inconclusive: 5.62 µM [rising, single point]"
O=C(N/N=C/c1cccc(O)c1)c1ccc(COc2ccccc2Br)cc1,,"inconclusive: 23.1 µM [falling, partial curve, poor fit]"
COC(=O)CCCn1c(C)cc(C(=O)CCl)c1C,inconclusive: 2.1%,
CC(=O)c1cc(CC=C(C)C)c(O)c(CC=C(C)C)c1O,inconclusive: -1.98%,
c1ccc(-c2ccc(-c3ccccn3)s2)nc1,,"inconclusive: 25.1 µM [falling, single point]"
Fc1ccccc1CSCc1nc2ccccc2[nH]1,inactive,

# Complete entries from above.
# Cc1ccc(NC(=O)c2ccc(=O)n(CC(=O)Nc3ccccc3)n2)cc1 as listed: activity change, negative = inhibition: inconclusive: 5.49%
# COc1cccc(NC(=O)CN(C)C(=O)c2ccc(S(=O)(=O)Nc3ccccc3F)cc2)c1 as listed: activity change, negative = inhibition: inconclusive: 9.95%
# COc1ccc(N2C(=S)NC3c4cc(Cl)ccc4OC2(C)C3C(=O)N(C)C)cc1 (configuration not stated) as listed: activity change, negative = inhibition: inconclusive: -11.1%
